# Data published in the supplement of paper PMC12067093, “Discovery and optimisation of a covalent ligand for TRIM25 and its application to targeted protein ubiquitination” (Chemical Science, 2025).
# The other results are listed elsewhere or left out.
# Compound: CC1Cc2ccccc2N1C(=O)C1CCCN(C1)C(=O)CCl (mixture of isomers) [TRIM25 ligand 11 (diastereomer mixture)]
# Assay: probe-labelled cysteine peptide fold change vs DMSO (competition) (log2 fold change); higher = less target engagement (more negative = stronger competition)
# Conditions: 10 µM; THP-1; incubation time: 4 h
# 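Also: competitive chemoproteomic profiling in live THP-1 cells with an iodoacetamide desthiobiotin (IA-DTB) probe, comparing probe-labelled peptide intensities in compound-treated cells against DMSO-treated controls.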
row,Target,probe-labelled cysteine peptide fold change
1,EHMT2_Q96KQ7_1098_DGEVYCIDAR (UniProt Q96KQ7),0.0875
2,EGLN1_Q9GZT9_326_CVTCIYYLNK (UniProt Q9GZT9),0.00611
3,EEF1AKMT1_Q8WVE0_149_IAAHSFDIVIADPPYLSEECLR (UniProt Q8WVE0),-0.00924
4,EDEM3_Q9BZQ6_82_LGNQVLEMFDHAYGNYMEHAYPADELMPLTCR (UniProt Q9BZQ6),0.0496
5,EEA1_Q15075_1402_VCDACFNDLQG (UniProt Q15075),-0.151
6,EI24_O14681_24_DSIWGICTISK (UniProt O14681),-0.152
7,EEF2_P13639_466_YVEPIEDVPCGNIVGLVGVDQFLVK (UniProt P13639),0.0592
8,EIF2A_Q9BY44_366_LISKPVASDSTYFAWCPDGEHILTATCAPR (UniProt Q9BY44),0.0117
9,EHMT2_Q96KQ7_957_YISENCETSTMNIDR (UniProt Q96KQ7),-0.0966
10,EFNB1_P98172_89+101_LYLVRPEQAAACSTVLDPNVLVTCNRPEQEIR (UniProt P98172),0.0237
11,ECT2_Q9H8V3_221_VTHLVANCTQGEK (UniProt Q9H8V3),0.0356
12,EFHD2_Q96C19_172_AAAGELQEDSGLCVLAR (UniProt Q96C19),-0.0761
13,EIF2S2_P20042_302+305_LYFLQCETCHSR (UniProt P20042),0.029
14,ECD_O95905_312_LAHGFEILCSK (UniProt O95905),-0.121
15,EGFL7_Q9UHF1_148_RGGCPQR (UniProt Q9UHF1),-0.0831
16,ECM1_Q16610_395_HPPSPTRDECFAR (UniProt Q16610),0.017
17,ECH1_Q13011_92_EMVECFNK (UniProt Q13011),-0.0437
18,EIF1_P41567_94_NICQFLVEIGLAKDDQLK (UniProt P41567),-1.14

row,Target,probe-labelled cysteine peptide fold change
1,EIF2AK4_Q9P2K8_46_QDHELQALEAIYGADFQDLRPDACGPVK (UniProt Q9P2K8),0.0137
2,EIF2B4_Q9UI10_266_LKPYMSFLTQCRPLSASMHNAIK (UniProt Q9UI10),-0.0998
3,EEF2_P13639_136_VTDGALVVVDCVSGVCVQTETVLR (UniProt P13639),-0.229
4,ECPAS_Q5VYK3_1503_EECNLWTEVWQENVPGSFGGIR (UniProt Q5VYK3),0.205
5,ECM1_Q16610_384_THHHLCCR (UniProt Q16610),0.288
6,EIF2A_Q9BY44_306_CDPVFDFGTGPR (UniProt Q9BY44),0.0225
7,EIF2B5_Q13144_414_VAAGAQIHQSLLCDNAEVK (UniProt Q13144),0.195
8,EEF1A1_P68104_363+370_NDPPMEAAGFTAQVIILNHPGQISAGYAPVLDCHTAHIACK (UniProt P68104),0.054
9,ECH1_Q13011_182_PVIAAVHGGCIGGGVDLVTACDIR (UniProt Q13011),0.101
10,EHMT2_Q96KQ7_426+428_GFEELPLCSCR (UniProt Q96KQ7),0.13
11,EEF1D_P29692_217_SSILLDVKPWDDETDMAQLEACVR (UniProt P29692),-0.0881
12,EEF2_P13639_41_STLTDSLVCK (UniProt P13639),-0.0186
13,EIF2B3_Q9NR50_64_ALCAEFK (UniProt Q9NR50),0.121
14,EIF2B1_Q14232_115_IADLCHTFIK (UniProt Q14232),-0.0863
15,EEFSEC_P57772_55_GITLDLGFSCFSVPLPAR (UniProt P57772),-0.119
16,EIF2S3_P41091_101_LDDPSCPRPECYR (UniProt P41091),0.0907
17,EHD4_Q9H223_493+495_LADCDCDGMLDEEEFALAK (UniProt Q9H223),-0.172
18,EDEM1_Q92611_160_GMFVFGYDNYMAHAFPQDELNPIHCR (UniProt Q92611),0.121

# Same assay, conditions: 50 µM; THP-1; incubation time: 4 h
row,Target,probe-labelled cysteine peptide fold change
1,EHMT2_Q96KQ7_1098_DGEVYCIDAR (UniProt Q96KQ7),0.303
2,EGLN1_Q9GZT9_326_CVTCIYYLNK (UniProt Q9GZT9),0.134
3,EEF1AKMT1_Q8WVE0_149_IAAHSFDIVIADPPYLSEECLR (UniProt Q8WVE0),-0.00191
4,EDEM3_Q9BZQ6_82_LGNQVLEMFDHAYGNYMEHAYPADELMPLTCR (UniProt Q9BZQ6),-0.128
5,EEA1_Q15075_1402_VCDACFNDLQG (UniProt Q15075),-0.0885
6,EI24_O14681_24_DSIWGICTISK (UniProt O14681),-0.183
7,EEF2_P13639_466_YVEPIEDVPCGNIVGLVGVDQFLVK (UniProt P13639),0.0324
8,EIF2A_Q9BY44_366_LISKPVASDSTYFAWCPDGEHILTATCAPR (UniProt Q9BY44),0.0285
9,EHMT2_Q96KQ7_957_YISENCETSTMNIDR (UniProt Q96KQ7),-0.126
10,EFNB1_P98172_89+101_LYLVRPEQAAACSTVLDPNVLVTCNRPEQEIR (UniProt P98172),-0.0576
11,ECT2_Q9H8V3_221_VTHLVANCTQGEK (UniProt Q9H8V3),-0.104
12,EFHD2_Q96C19_172_AAAGELQEDSGLCVLAR (UniProt Q96C19),-0.204
13,EIF2S2_P20042_302+305_LYFLQCETCHSR (UniProt P20042),0.0527
14,ECD_O95905_312_LAHGFEILCSK (UniProt O95905),-0.143
15,EGFL7_Q9UHF1_148_RGGCPQR (UniProt Q9UHF1),0.0806
16,ECM1_Q16610_395_HPPSPTRDECFAR (UniProt Q16610),0.113
17,ECH1_Q13011_92_EMVECFNK (UniProt Q13011),0.0591
18,EIF1_P41567_94_NICQFLVEIGLAKDDQLK (UniProt P41567),-0.0838

row,Target,probe-labelled cysteine peptide fold change
1,EIF2AK4_Q9P2K8_46_QDHELQALEAIYGADFQDLRPDACGPVK (UniProt Q9P2K8),0.0073
2,EIF2B4_Q9UI10_266_LKPYMSFLTQCRPLSASMHNAIK (UniProt Q9UI10),0.0094
3,EEF2_P13639_136_VTDGALVVVDCVSGVCVQTETVLR (UniProt P13639),-0.371
4,ECPAS_Q5VYK3_1503_EECNLWTEVWQENVPGSFGGIR (UniProt Q5VYK3),0.058
5,ECM1_Q16610_384_THHHLCCR (UniProt Q16610),0.46
6,EIF2A_Q9BY44_306_CDPVFDFGTGPR (UniProt Q9BY44),-0.0017
7,EIF2B5_Q13144_414_VAAGAQIHQSLLCDNAEVK (UniProt Q13144),-0.298
8,EEF1A1_P68104_363+370_NDPPMEAAGFTAQVIILNHPGQISAGYAPVLDCHTAHIACK (UniProt P68104),-0.169
9,ECH1_Q13011_182_PVIAAVHGGCIGGGVDLVTACDIR (UniProt Q13011),0.132
10,EHMT2_Q96KQ7_426+428_GFEELPLCSCR (UniProt Q96KQ7),-0.18
11,EEF1D_P29692_217_SSILLDVKPWDDETDMAQLEACVR (UniProt P29692),-0.0228
12,EEF2_P13639_41_STLTDSLVCK (UniProt P13639),-0.16
13,EIF2B3_Q9NR50_64_ALCAEFK (UniProt Q9NR50),0.272
14,EIF2B1_Q14232_115_IADLCHTFIK (UniProt Q14232),0.0153
15,EEFSEC_P57772_55_GITLDLGFSCFSVPLPAR (UniProt P57772),0.184
16,EIF2S3_P41091_101_LDDPSCPRPECYR (UniProt P41091),0.122
17,EHD4_Q9H223_493+495_LADCDCDGMLDEEEFALAK (UniProt Q9H223),-0.0896
18,EDEM1_Q92611_160_GMFVFGYDNYMAHAFPQDELNPIHCR (UniProt Q92611),-0.0252
